Out of some 400,000 compounds screened, about 13,000 (3.2%) were called active. The shares of active, inactive and inconclusive entries below differ from those in the screen. Calls follow the shape of the dose curve; as a rule, active = well fitted cell-killing curve with a large enough effect; inconclusive = small, poorly fitted or top-dose-only effect, or effect the other way; inactive = flat fitted curve, though single readings scatter. Where the call is inconclusive, the potency comes from a doubtful curve fit.
assay: qHTS assay for MDR1-selective chemotherapeutics: Primary screen using the drug-selected MDR subline cells KB-V1; details: KB-V1 MDR cells viability, CellTiter-Glo, 72 h; activity change, negative = cytotoxicity: at 46.1 µM (top of the series); also: nearly all actives have a fitted effect of over 60% in size
Summary of the method: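 Drug-selected KB-V1 cells, grown in DMEM lacking phenol red with 10% FBS, receive compound titrations; after three days at 37 degrees C, surviving cell ATP is quantified by CellTiter-Glo luminescence and responses normalized and curve-fitted.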
% is scaled to controls: 0 for no effect and ±100 for the full control effect; potency is read from the fitted curve at half-maximal effect.

SMILES	Potency	activity change, negative = cytotoxicity
O=C(CCl)N=c1sccn1Cc1cccc2ccccc12	inconclusive: 29.1 µM [cytotoxic, single point]	
Cc1ccc(-n2ncc3c(NCc4ccccc4)ncnc32)cc1C	inconclusive: 23.1 µM [cytotoxic, single point]	
COc1ccccc1CNC(=O)c1cc(-c2ccccc2C)nn1CC1CC(c2cccnc2)=NO1 (stereo unspecified)		inactive: -2.16%
Cc1cc(N/N=C/c2ccncc2)c([N+](=O)[O-])cc1[N+](=O)[O-]	inconclusive: 29.1 µM [rising, single point]	
Cc1ccc(S(=O)(=O)N2[C@@H](c3ccc(Cl)cc3)C(C(=O)OC(C)(C)C)=CC[C@H]2c2ccc(Cl)c(Cl)c2)cc1		inactive: -12%
CCOC(=O)CN(C(=O)COC(=O)C1=NNC(=O)CC1)c1ccc(F)cc1		inactive: 4.73%
CCn1c(=O)cc(SCC(=O)NCc2ccccn2)c2ccccc21		inactive: -7.74%
CCC(=O)Nc1cccc(NC(=S)NC(=O)c2ccccc2Cl)c1		inactive: 2.47%
N#CCSc1nc2c(c(=O)n1Cc1ccco1)C1(CCCC1)Cc1ccccc1-2	inconclusive: 5.17 µM [cytotoxic, partial curve, poor fit]	
COc1cccc(-c2csc(N3CCN(C(=O)Nc4ccc(F)cc4)CC3)n2)c1	inconclusive: 18.4 µM [cytotoxic, single point]	
COc1cc(C(=O)Nc2cc(C)c(OCC(=O)N3CCOCC3)c(C)c2)cc(OC)c1OC		inconclusive: 35.8%
COc1ccc2c(c1)C(=O)/C(=C/C=C/c1ccccc1)CC2	inconclusive: 29.1 µM [cytotoxic, single point]	
CCN(CC)c1ccc(C=C2C(=O)OC3(CCCCC3)OC2=O)cc1	inconclusive: 29.1 µM [rising, single point]	
COc1ccc(/C=C(/C(=O)Nc2ccccc2C(=O)N2CCCC2)c2ccccc2)cc1	inconclusive: 16.4 µM [cytotoxic, single point]	
O=C(NC1CCCC1)C(c1cccnc1)N(Cc1ccccc1F)C(=O)c1csnn1 (stereo unspecified)	inconclusive: 11.6 µM [rising, partial curve, poor fit]	
COc1ccccc1CN(C)C(=O)C1(c2ccc(Cl)cc2)CC1	inconclusive: 18.4 µM [cytotoxic, single point]	
COc1ccc(-n2cc(CN(C)C(C)c3ccncn3)c(-c3cccc(F)c3)n2)cc1 (stereo unspecified)		inconclusive: -37.2% [cytotoxic]
CC(N)c1csc(Nc2ccc(S(C)(=O)=O)cc2)n1 (stereo unspecified)		inactive: 2.23%
CCCN1CCC(NC(=O)C2CCCCC2C(=O)O)CC1 (stereo unspecified)	inconclusive: 18.4 µM [rising, single point]	
COc1ccc(C(=O)c2ccc(N3CCN(C(=O)c4ccc(F)cc4)CC3)c(F)c2)cc1Br		inactive: -21.7%
CCN1C(=O)c2ccccc2S(=O)(=O)c2ccc(C(=O)NCc3ccc(F)cc3)cc21		inactive: 10.1%
CN1C(=O)S/C(=C\c2ccccc2OCc2ccc(C(=O)O)cc2)C1=O	inconclusive: 23.1 µM [rising, single point]	
CCOc1ccc(-c2cnc3n2CCC3)cc1	inconclusive: 20.6 µM [cytotoxic, partial curve, poor fit]	
COc1ccc(/C=C/C(=O)N2CCN(C)CC2)cc1S(=O)(=O)N1CCCCC1		inactive: -10%

SMILES	Potency	activity change, negative = cytotoxicity
O=c1c(F)cn(C2CCCO2)c(=O)n1Cc1ccccc1Cl (stereo unspecified)	inconclusive: 16.4 µM [cytotoxic, partial curve]	
Oc1ccccc1C=NNC(=S)NN=Cc1ccccc1O	inconclusive: 32.6 µM [cytotoxic, single point]	
CCN(CC)c1cccc(OC2=NS(=O)(=O)c3ccccc32)c1		inactive: -7.73%
O=C1NC(=S)N(C(=O)c2ccc(F)cc2)/C1=C/c1ccccc1	inconclusive: 18.4 µM [cytotoxic, single point]	
COc1cc(OC)c(C2=NOC(C(=O)Nc3ccc4c(c3)OCO4)C2)cc1Cl (stereo unspecified)	inconclusive: 20.6 µM [cytotoxic, partial curve]	
COc1ccc(CCNC(=S)Nc2cc(C)cc(C)c2)cc1	active: 18.4 µM	
CSc1cccc(NC(=O)c2ccc3c(c2)CCCN3S(C)(=O)=O)c1	inconclusive: 25.9 µM [cytotoxic, partial curve]	
Cc1ccc(S(=O)(=O)Nc2ccc3c(c2)nc(CCN2CCCC2)n3C)cc1	inconclusive: 20.6 µM [cytotoxic, single point]	
Cc1cc(NC(=O)c2ccc(OCC3CCCO3)cc2)ccc1Br (stereo unspecified)	inconclusive: 5.8 µM [cytotoxic, partial curve]	
Cc1ccc(S(=O)(=O)N(Cc2ccc(F)cc2)Cc2ccco2)cc1	inconclusive: 14.6 µM [cytotoxic, partial curve, poor fit]	
COc1ccc(Cl)cc1NC(=O)CN(C)C1CCCCC1	inconclusive: 35.5 µM [cytotoxic, single point]	
COc1ccc(C)cc1NCC(=O)Nc1ccc(C(C)(C)C)cc1		inactive: -26.1%
CCOC(=O)c1ccc(NC(=O)c2ncn3c2C(=O)N[C@H](C)C3)cc1		inactive: -4.01%
CCN(Cc1ccccc1)C(=O)C1CCN(Cc2sccc2C)CC1	inconclusive: 20.6 µM [cytotoxic, partial curve, poor fit]	
CCOC(=O)CSc1snnc1-c1ccccc1	inconclusive: 11.6 µM [rising, partial curve]	
CC1(Cc2cc(Cl)ccc2C(F)(F)F)C(=O)Nc2cc(F)ccc21 (stereo unspecified)	inconclusive: 32.6 µM [cytotoxic, single point]	
COc1ccc(Sc2ccc(NC(=O)c3ccccc3Cl)cc2C#N)cc1	inconclusive: 29.1 µM [cytotoxic, single point]	
Fc1ccc2nc(Nc3nc4c(F)cccc4s3)sc2c1	inconclusive: 29.1 µM [cytotoxic, single point]	
COc1ccc(NC(=O)c2ccc3[nH]c(C)cc(=O)c3c2)cc1	inconclusive: 11.6 µM [rising, partial curve]	
Cc1ccc(C)c(NC(=O)CN(C)C(=O)c2ccc(-n3cncn3)c([N+](=O)[O-])c2)c1		inactive: 2.72%
CCOC(=O)C(C)NC(=O)c1cc2c(=O)[nH]c3ccc(C)cc3c2s1 (stereo unspecified)		inactive: 5.48%
O=C(Nc1cccc(S(=O)(=O)N2CCCCC2)c1)c1cncc(Br)c1		inactive: -2.51%
O=C(NCCc1ccc(Cl)cc1)c1ccc2c(c1)N(Cc1ccc(F)cc1Cl)C(=O)CS2	inconclusive: 7.31 µM [cytotoxic, partial curve]	
O=C(CNC(=O)N1CC(=O)Nc2ccccc21)Nc1ccc(F)c(Cl)c1		inactive: -0.728%

In another format: four of the compounds above

| SMILES | Potency | activity change, negative = cytotoxicity |
| --- | --- | --- |
| COc1ccc(/C=C/C(=O)N2CCN(C)CC2)cc1S(=O)(=O)N1CCCCC1 |  | inactive: -10% |
| O=c1c(F)cn(C2CCCO2)c(=O)n1Cc1ccccc1Cl (stereo unspecified) | inconclusive: 16.4 µM [cytotoxic, partial curve] |  |
| Oc1ccccc1C=NNC(=S)NN=Cc1ccccc1O | inconclusive: 32.6 µM [cytotoxic, single point] |  |
| CCN(CC)c1cccc(OC2=NS(=O)(=O)c3ccccc32)c1 |  | inactive: -7.73% |

(more compounds)

SMILES	Potency	activity change, negative = cytotoxicity
Cc1cc(C(=O)C(C)OC(=O)c2cnccn2)c(C)n1-c1ccccc1 (stereo unspecified)	inconclusive: 20.6 µM [cytotoxic, single point]	
Cc1ccc(/C=C/C(=O)c2ccc([N+](=O)[O-])o2)cc1	inconclusive: 32.6 µM [rising, single point]	
CC(C)(C)NC(=O)CN(C(=O)CCC(=O)Nc1nccs1)c1ccc(F)c(Cl)c1		inactive: 0.651%
Cc1cc(-c2cccs2)c2c(N)c(C(=O)c3ccc4c(c3)OCO4)sc2n1	active: 6.51 µM	
Nc1c(NCc2ccccc2)c(=O)c1=O	inconclusive: 3.66 µM [rising, full curve]	
COc1ccc(CN2C(=O)c3cccnc3C2=O)cc1S(=O)(=O)N(C)Cc1ccco1	inconclusive: 16.4 µM [rising, partial curve, poor fit]	
CCCCN(C)/C=N/c1c(C#N)cnn1-c1ccc(C)cc1	active: 5.8 µM	
COc1ccc(-c2[nH]c(-c3ccccc3)nc2SCC(=O)Nc2ccc3c(c2)OCO3)cc1		inactive: -17.3%
CCn1c(CN2CCCCC2)nc2cc(NC(=O)COc3ccc([N+](=O)[O-])cc3)ccc21	inconclusive: 23.1 µM [cytotoxic, single point]	
Cc1cc(C)cc(N(CC(=O)Nc2cc(C)ccc2C)S(=O)(=O)c2c(C)[nH]c(=O)[nH]c2=O)c1	inconclusive: 7.31 µM [rising, partial curve, poor fit]	
C/C(=N\NC(N)=O)c1ccccc1	inconclusive: 18.4 µM [cytotoxic, single point]	
N/C(COc1cccc(C(F)(F)F)c1)=N\NC(=O)c1cccnc1Oc1ccccc1	inconclusive: 23.1 µM [cytotoxic, single point]	
Clc1ccc(OCCn2cnc3ccccc32)c(Cl)c1	active: 16.4 µM	
Cc1ccc(C(=O)N2CCCCCC2)cc1S(=O)(=O)Nc1ccccc1	inconclusive: 13 µM [cytotoxic, partial curve]	
Brc1ccc(-c2csc(N3CCCCCC3)n2)cc1		inactive: -2.37%
CC[C@]12C(=O)N(C)C[C@H]([C@@H]3C(=O)N(C)C(=O)[C@@H]31)N2C(=O)c1ccc(Br)cc1		inactive: 10.2%
Cc1ccc(NC(=O)C(C)OC(=O)c2n[nH]c3ccccc23)cc1 (stereo unspecified)	inconclusive: 25.9 µM [rising, single point]	
O=C(Nc1cccn(Cc2cccc(F)c2)c1=O)NC1CCCCC1		inactive: -4.65%
O=c1cc(-c2ccccc2)oc2cc(O)c(O)c(O)c12	inactive	
CCCCC(=O)Nc1ccc(C(=O)NNC(=O)c2ccccc2Br)cc1	inconclusive: 29.1 µM [cytotoxic, single point]	
Fc1c(-c2ccc3ncnc(NCc4cccs4)c3c2)ccc2c1OCO2		inactive: -8.25%
CCCn1c(=N)n(CC(=O)c2ccc([N+](=O)[O-])cc2)c2ccccc21	inconclusive: 23.1 µM [cytotoxic, single point]	
CCS(=O)(=O)N1CCN=C1SCc1cccc(F)c1	inconclusive: 14.6 µM [cytotoxic, partial curve]	

Reference: PubChem BioAssay AID1347076 (National Center for Advancing Translational Sciences (NCATS), 2019)
